pIC50: −log10 of the molar value. Like-named read-outs stand apart in the source and are kept apart here. Some entries share one result that the patent states for a list of compounds.
Target: TNFα (Homo sapiens, UniProt P01375)
Experiment: TNF induced HEK-Blue assay (NF-kB-driven secreted alkaline phosphatase reporter)
Type: cell-based
Procedure, shortened: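 HEK-Blue-CD40L cells (NF-kB-driven SEAP reporter), 20,000/well, added after 30 min pre-incubation of compound (0.004–25 μM final) with TNFα 0.5 ng/mL final at 37 °C; 18 h incubation. SEAP read with QUANTI-Blue at 620 nm; IC50 from 4-parameter logistic fit, normalized to unstimulated and stimulated DMSO controls.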

Protein sequences, listed by entry. Tags and fused reporters are not part of them. Residues count along the entry.
UniProt P01375, 77-233 limits assumed: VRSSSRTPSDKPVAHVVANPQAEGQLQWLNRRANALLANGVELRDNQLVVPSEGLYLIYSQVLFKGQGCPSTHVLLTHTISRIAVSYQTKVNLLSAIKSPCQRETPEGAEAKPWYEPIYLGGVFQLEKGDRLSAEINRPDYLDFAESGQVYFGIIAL

[1] = TNFα 0.5 ng/mL, HEK-Blue-CD40L cells, 18 h; read-out: IC50 values measured in the TNF induced HEK-Blue assay

SMILES	pIC50 [1]	pIC50 (read-out: IC50 values measured in the TNF induced HEK-Blue assay; TNFα 0.5 ng/mL, HEK-Blue-CD40L cells, 18 h)
CC(Nc1c(Cl)cnc2ccc(-c3ccc(C(C)(C)O)cc3)cc12)c1ncccc1F (racemic) [Example 170, 2-(4-(3-chloro-4-((1-(3-fluoropyridin-2-yl)ethyl)amino)quinolin-6-yl)phenyl) propan-2-ol]	≥ 4.60	
C[C@@H](Nc1ccnc2ccc(Br)cc12)c1cc(-c2cncnc2)ccc1F [Example 546, (R)-6-bromo-N-(1-(2-fluoro-5-(pyrimidin-5-yl)phenyl)ethyl)quinolin-4-amine]	≥ 4.60	
CC(Nc1c(Cl)cnc2ccc(-c3cnc(C(C)(C)O)nc3)c(F)c12)c1ccccc1F (racemic) [Example 253, 2-(5-(3-chloro-5-fluoro-4-((1-(2-fluorophenyl)ethyl)amino)quinolin-6-yl)pyrimidin-2-yl)propan-2-ol]	≥ 4.60	
Cc1cc(-c2ccc(F)c([C@@H](C)Nc3c(Cl)cnc4ccccc34)c2)cnn1 [Example 477, (R)-3-chloro-N-(1-(2-fluoro-5-(6-methylpyridazin-4-yl)phenyl)ethyl)quinolin-4-amine]	≥ 4.60	
C[C@@H](Nc1c(Cl)cnc2ccccc12)c1cc(-c2cccc(N)c2)ccc1F [Example 526, (R)—N-(1-(3′-amino-4-fluoro-[1,1′-biphenyl]-3-yl)ethyl)-3-chloroquinolin-4-amine]	≥ 4.60	
CC(Nc1c(Cl)cnc2ccc(-c3cnc(N4CCNC(=O)C4)nc3)cc12)c1nc(C(N)=O)ccc1F (single isomer, unassigned) [Example 25, 6-(1-((3-chloro-6-(2-(3-oxopiperazin-1-yl)pyrimidin-5-yl)quinolin-4-yl)amino)ethyl)-5-fluoropicolinamide]	≥ 4.60	
CNc1ncc(-c2ccc3ncc(Cl)c(N[C@H](C)c4ccccc4F)c3c2)cn1 [Example 17, (R)-3-chloro-N-(1-(2-fluorophenyl)ethyl)-6-(2-(methylamino)pyrimidin-5-yl)quinolin-4-amine]	≥ 4.60	
C[C@@H](Nc1c(Cl)cnc2ccccc12)c1cc(-c2cnc(N3CCOCC3)nc2)ccc1F [Example 467, (R)-3-chloro-N-(1-(2-fluoro-5-(2-morpholinopyrimidin-5-yl)phenyl)ethyl)quinolin-4-amine]	≥ 4.60	
C[C@@H](Nc1c(Cl)cnc2cc(F)c(-c3cnc(C(C)(C)O)nc3)nc12)c1cccc(C(N)=O)c1 [Example 581, (R)-3-(1-((3-chloro-7-fluoro-6-(2-(2-hydroxypropan-2-yl)pyrimidin-5-yl)-1,5-naphthyridin-4-yl)amino)ethyl)benzamide]	≥ 4.60	
CC(Nc1c(Cl)cnc2ccc(-c3cnc(C(C)(C)O)nc3)cc12)[C@@H]1CCCNC1 (mixture of isomers) [Example 98, (R)-2-(5-(3-chloro-4-((1-(piperidin-3-yl)ethyl)amino)quinolin-6-yl)pyrimidin-2-yl)propan-2-ol]	≥ 4.60	
CC(Nc1c(Cl)cnc2ccc(-c3cnc(C(C)(C)O)nc3)cc12)[C@@H]1CCCN(C(=O)OC(C)(C)C)C1 (mixture of isomers) [Example 61, tert-butyl (R)-3-((R)-1-((3-chloro-6-(2-(2-hydroxypropan-2-yl)pyrimidin-5-yl)quinolin-4-yl)amino)ethyl)piperidine-1-carboxylate]	≥ 4.60	
C[C@@H](Nc1c(Cl)cnc2ccc(-c3cnc(C(C)(C)O)nc3)cc12)c1cc(C(C)(C)O)ccc1F [Example 410, (R)-2-(5-(3-chloro-4-((1-(2-fluoro-5-(2-hydroxypropan-2-yl)phenyl)ethyl)amino)quinolin-6-yl)pyrimidin-2-yl)propan-2-ol]	≥ 4.60	
CC(Nc1c(Cl)cnc2cc(F)c(-c3cnc(N4CCN(C(=O)[C@@H](N)CO)CC4)nc3)cc12)c1ccccc1F (single isomer, unassigned) [Example 604]	≥ 4.60	
C[C@@H](Nc1c(Cl)cnc2ccc(-c3ccc(N4CCN[C@H](CO)C4)nc3)cc12)c1ccccc1F [Example 84, ((S)-4-(5-(3-chloro-4-(((R)-1-(2-fluorophenyl)ethyl)amino)quinolin-6-yl)pyridin-2-yl)piperazin-2-yl)methanol]	≥ 4.60	
C[C@@H](Nc1c(Cl)cnc2ccc(-c3cnc(C(C)(C)O)nc3)cc12)c1cc(N)ccc1F [Example 374, (R)-2-(5-(4-((1-(5-amino-2-fluorophenyl)ethyl)amino)-3-chloroquinolin-6-yl)pyrimidin-2-yl)propan-2-ol]		≥ 4.60
COCC(C)(O)c1ncc(-c2cc3c(NC(C)c4ccccc4F)c(Cl)cnc3cc2F)cn1 (stereo not drawn) [Example 292, 2-(5-(3-chloro-7-fluoro-4-((1-(2-fluorophenyl)ethyl)amino)quinolin-6-yl)pyrimidin-2-yl)-1-methoxypropan-2-ol]	≥ 4.60	
Cc1ccc(C)c(Nc2c(C)c(O)nc3ccc(-c4cnc(C(C)(C)O)nc4)cc23)c1 [Example 181, 4-((2,5-dimethylphenyl)amino)-6-(2-(2-hydroxypropan-2-yl)pyrimidin-5-yl)-3-methylquinolin-2-ol]	≥ 4.60	

SMILES	pIC50 [1]	pIC50 (read-out: IC50 values measured in the TNF induced HEK-Blue assay; TNFα 0.5 ng/mL, HEK-Blue-CD40L cells, 18 h)
CC(=O)NCc1ccc(-c2ccc3ncc(Cl)c(N[C@H](C)c4ccccc4F)c3c2)cc1 [Example 110, (R)—N-(4-(3-chloro-4-((1-(2-fluorophenyl)ethyl)amino)quinolin-6-yl)benzyl)acetamide]	≥ 4.60	
COC(=O)[C@H](CN)N1CCN(c2ncc(-c3ccc4ncc(Cl)c(N[C@H](C)c5ccccc5F)c4c3)cn2)CC1 [Example 99, methyl (S)-3-amino-2-(4-(5-(3-chloro-4-(((R)-1-(2-fluorophenyl)ethyl)amino)quinolin-6-yl)pyrimidin-2-yl)piperazin-1-yl) propanoate]	≥ 4.60	
CC(Nc1c(F)cnc2ccc(-c3cnc(C(C)(C)O)nc3)cc12)c1ccccc1F (racemic) [Example 156, 2-(5-(3-fluoro-4-((1-(2-fluorophenyl)ethyl)amino)quinolin-6-yl)pyrimidin-2-yl) propan-2-ol]	≥ 4.60	
Cc1nc2ccccc2c(N[C@H](C)c2cc(-c3cncnc3)ccc2F)c1Cl [Example 530, (R)-3-chloro-N-(1-(2-fluoro-5-(pyrimidin-5-yl)phenyl)ethyl)-2-methylquinolin-4-amine]	≥ 4.60	
CC(Nc1c(Cl)cnc2ccc(-c3ccc(C(C)(C)O)cc3)cc12)c1cn(C)cn1 (racemic) [Example 205, 2-(4-(3-chloro-4-((1-(1-methyl-1H-imidazol-4-yl)ethyl)amino)quinolin-6-yl)phenyl)propan-2-ol]	≥ 4.60	
Cc1nc2ccc(-c3cnc(C(C)(C)O)nc3)cc2c(NC(C)c2cc(F)ccc2F)c1Cl (racemic) [Example 317, 2-(5-(3-chloro-4-((1-(2,5-difluorophenyl)ethyl)amino)-2-methylquinolin-6-yl)pyrimidin-2-yl)propan-2-ol]	≥ 4.60	
CC(Nc1c(Cl)cnc2cc(F)c(-c3cnc(N4CCN(C(=O)CCC(=O)O)CC4)nc3)cc12)c1ccccc1F (single isomer, unassigned) [Example 602, 4-(4-(5-(3-chloro-7-fluoro-4-((1-(2-fluorophenyl)ethyl)amino)quinolin-6-yl)pyrimidin-2-yl)piperazin-1-yl)-4-oxobutanoic acid]	≥ 4.60	
CC(Nc1c(Cl)cnc2ccc(-c3ccc(C(C)(C)O)cc3)cc12)c1ccccn1 (racemic) [Example 175, 2-(4-(3-chloro-4-((1-(pyridin-2-yl)ethyl)amino)quinolin-6-yl)phenyl)propan-2-ol]	≥ 4.60	
C=CC(=O)N(C)c1ncc(-c2ccc3ncc(Cl)c(N[C@H](C)c4ccccc4F)c3c2)cn1 [Example 124, (R)—N-(5-(3-chloro-4-((1-(2-fluorophenyl)ethyl)amino)quinolin-6-yl)pyrimidin-2-yl)-N-methylacrylamide]	≥ 4.60	
CC(C)(O)c1ncc(-c2ccc3ncc(Cl)c(N[C@H](CCF)c4ccccc4F)c3c2)cn1 (single isomer, unassigned) [Example 238]	≥ 4.60	
C[C@@H](Nc1c(Cl)cnc2cc(F)c(-c3cnc(C(C)(C)O)nc3)nc12)c1cc(CO)ccc1F [Example 505, (R)-2-(5-(7-chloro-3-fluoro-8-((1-(2-fluoro-5-(hydroxymethyl)phenyl)ethyl)amino)-1,5-naphthyridin-2-yl)pyrimidin-2-yl)propan-2-ol]	≥ 4.60	
C[C@@H](Nc1c(Cl)cnc2ccc(-c3cnc(C(C)(C)O)nc3)cc12)c1cc(-c2ncccn2)ccc1F [Example 345, (R)-2-(5-(3-chloro-4-((1-(2-fluoro-5-(pyrimidin-2-yl)phenyl)ethyl)amino)quinolin-6-yl)pyrimidin-2-yl)propan-2-ol]	≥ 4.60	
C[C@@H](Nc1c(Cl)cnc2cc(F)c(-c3cnc(N4CCC(C(=O)O)C4)nc3)cc12)c1ccccc1F (mixture of isomers) [Example 282, 1-(5-(3-chloro-7-fluoro-4-(((R)-1-(2-fluorophenyl)ethyl)amino)quinolin-6-yl)pyrimidin-2-yl)pyrrolidine-3-carboxylic acid]	≥ 4.60	
CC(C)(O)c1ncc(-c2nc3c(N[C@H](c4cc(C#N)ccc4F)C(F)F)c(Cl)cnc3cc2F)cn1 [Example 489, (R)-3-(1-((3-chloro-7-fluoro-6-(2-(2-hydroxypropan-2-yl)pyrimidin-5-yl)-1,5-naphthyridin-4-yl)amino)-2,2-difluoroethyl)-4-fluorobenzonitrile]	≥ 4.60	
C[C@@H](Nc1c(Cl)cnc2ccc(-c3cnc(C(C)(C)O)nc3)cc12)c1cc(N2CCOC2=O)ccc1F [Example 367, (R)-3-(3-(1-((3-chloro-6-(2-(2-hydroxypropan-2-yl)pyrimidin-5-yl)quinolin-4-yl)amino)ethyl)-4-fluorophenyl) oxazolidin-2-one]	≥ 4.60	
CC(Nc1c(Cl)cnc2cc(F)c(-c3cnc(N4CCN(CC(=O)O)CC4)nc3)cc12)c1ccccc1F (single isomer, unassigned) [Example 242, 2-(4-(5-(3-chloro-7-fluoro-4-((1-(2-fluorophenyl)ethyl)amino)quinolin-6-yl)pyrimidin-2-yl)piperazin-1-yl)acetic acid]	≥ 4.60	

Source: patent US10865191B2, “Heterocyclic compounds useful as modulators of TNF alpha” (BRISTOL-MYERS SQUIBB COMPANY, priority 2015, dated 2020)
